Paper PMC11598884
No constants are given. Whether binding was seen depends on the method and setting. Binding seen in cells or lysates may run through a third protein. A result given as binding can be weak or reduced; the word gives no strength. Where a sequence is shown, tags or fusion partners need not be part of it.

T1: Myc-tagged ISCA1 (pcDNA3.1-Myc) (chicken) (UniProt Q5ZJ74)
T1 sequence: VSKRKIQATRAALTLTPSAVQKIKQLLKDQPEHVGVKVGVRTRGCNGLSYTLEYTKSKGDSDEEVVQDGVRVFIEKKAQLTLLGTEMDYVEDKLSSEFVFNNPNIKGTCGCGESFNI

B1: Myc-tagged ISCA1 (pcDNA3.1-Myc) (protein, UniProt Q5ZJ74 13-129)
chain: VSKRKIQATRAALTLTPSAVQKIKQLLKDQPEHVGVKVGVRTRGCNGLSYTLEYTKSKGDSDEEVVQDGVRVFIEKKAQLTLLGTEMDYVEDKLSSEFVFNNPNIKGTCGCGESFNI

Legend:
[1] = target: T1, Myc-tagged ISCA1 (pcDNA3.1-Myc) (chicken); assay: co-IP; HEK293T co-transfected 36 h with pcDNA3.1-Nsp2-Flag and Myc-tagged host protein; RIPA lysis; magnetic beads with Flag, Myc or IgG antibodies overnight at 4 °C; TBST washes; Western blot
[2] = target: IBV Nsp2-Flag (pcDNA3.1-Nsp2-Flag) (infectious bronchitis virus (IBV), strain JS/2010/12); assay: as above

Molecule | binding [1] | binding [2]
IBV Nsp2-Flag (pcDNA3.1-Nsp2-Flag) | binds | –
B1 | – | binds
